Our source for the binding values is article doi:10.1101/233213.

No constants are given. Whether binding was seen depends on the method and setting. In cells and extracts the contact can be indirect. For part of these data: A result given as binding can be weak or reduced; the word gives no strength. For part of these data: Sequences can lack the tags named with a protein.

Test [1] concerns the target T1, GlyT2 (neuronal glycine transporter 2), wild type (rat) (UniProt P58295).
T1 sequence: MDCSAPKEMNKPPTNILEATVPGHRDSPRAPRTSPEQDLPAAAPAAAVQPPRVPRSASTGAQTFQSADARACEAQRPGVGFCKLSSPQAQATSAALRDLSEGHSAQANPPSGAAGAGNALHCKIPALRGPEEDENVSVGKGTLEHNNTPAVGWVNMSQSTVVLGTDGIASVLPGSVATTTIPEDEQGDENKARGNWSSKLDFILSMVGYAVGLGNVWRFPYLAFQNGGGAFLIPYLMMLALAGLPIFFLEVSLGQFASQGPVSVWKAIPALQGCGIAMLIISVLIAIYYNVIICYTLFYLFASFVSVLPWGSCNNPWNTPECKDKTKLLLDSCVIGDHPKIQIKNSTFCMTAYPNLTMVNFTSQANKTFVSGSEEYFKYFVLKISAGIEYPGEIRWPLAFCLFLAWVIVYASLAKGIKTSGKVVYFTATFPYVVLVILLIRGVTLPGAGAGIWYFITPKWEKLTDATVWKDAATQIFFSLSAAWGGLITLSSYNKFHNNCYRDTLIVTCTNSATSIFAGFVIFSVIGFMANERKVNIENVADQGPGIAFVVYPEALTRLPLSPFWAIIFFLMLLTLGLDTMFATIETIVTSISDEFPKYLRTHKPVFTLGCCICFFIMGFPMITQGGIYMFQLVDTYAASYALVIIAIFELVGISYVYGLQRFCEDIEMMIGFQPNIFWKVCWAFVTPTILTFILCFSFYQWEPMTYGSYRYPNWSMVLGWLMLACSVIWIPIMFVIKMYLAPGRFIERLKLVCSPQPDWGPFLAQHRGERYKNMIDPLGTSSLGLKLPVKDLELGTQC
The test is described as follows: co-IP.

A further test has as its target Myc-tagged p70-LNX1. The test is described as follows: co-IP.
The target of test [2] is GST fused to the N-terminus of GlyT2 (rat). Nature of the test: pull-down.

As for Myc-tagged p70-LNX1, in test [1], the binding entry is given as “binds”.

B1: GlyT2 (neuronal glycine transporter 2), wild type (protein, UniProt P58295 1-799)
chain: MDCSAPKEMNKPPTNILEATVPGHRDSPRAPRTSPEQDLPAAAPAAAVQPPRVPRSASTGAQTFQSADARACEAQRPGVGFCKLSSPQAQATSAALRDLSEGHSAQANPPSGAAGAGNALHCKIPALRGPEEDENVSVGKGTLEHNNTPAVGWVNMSQSTVVLGTDGIASVLPGSVATTTIPEDEQGDENKARGNWSSKLDFILSMVGYAVGLGNVWRFPYLAFQNGGGAFLIPYLMMLALAGLPIFFLEVSLGQFASQGPVSVWKAIPALQGCGIAMLIISVLIAIYYNVIICYTLFYLFASFVSVLPWGSCNNPWNTPECKDKTKLLLDSCVIGDHPKIQIKNSTFCMTAYPNLTMVNFTSQANKTFVSGSEEYFKYFVLKISAGIEYPGEIRWPLAFCLFLAWVIVYASLAKGIKTSGKVVYFTATFPYVVLVILLIRGVTLPGAGAGIWYFITPKWEKLTDATVWKDAATQIFFSLSAAWGGLITLSSYNKFHNNCYRDTLIVTCTNSATSIFAGFVIFSVIGFMANERKVNIENVADQGPGIAFVVYPEALTRLPLSPFWAIIFFLMLLTLGLDTMFATIETIVTSISDEFPKYLRTHKPVFTLGCCICFFIMGFPMITQGGIYMFQLVDTYAASYALVIIAIFELVGISYVYGLQRFCEDIEMMIGFQPNIFWKVCWAFVTPTILTFILCFSFYQWEPMTYGSYRYPNWSMVLGWLMLACSVIWIPIMFVIKMYLAPGRFIERLKLVCSPQPDWGPFLAQHRGERYKNMIDPLGTSSLGLKLPVKDLELGTQC
Consider B1, for which the binding result with Myc-tagged p70-LNX1 is given as “binds”.

B2: FLAG-tagged p80-LNX1 (Ligand of Numb protein X1, isoform p80) (enzyme, UniProt O70263 1-728)
chain: MNQPDLADDPDPSPEPLCIVCGQNHSPEENHFYTYTEDVDDDLICHICLQALLDPLDTPCGHTYCTLCLTNFLVEKDFCPVDRKPVVLQHCKKSSILVNKLLNKLLVTCPFTEHCTEVLQRCDLQHHFQTSCKGASHYGLTKDRKRRSQDGCPDGCASLMATTLSPEVSAAATISLMTDEPGLDNPAYVSSVEDGEPVANSSDSGRSNRTRARPFERSTMRSRSFKKINRALSALRRTKSGSVVANHVDQGRDNSENTTVPEVFPRLFHLIPDGEITSIKINRADPSESLSIRLVGGSETPLVHIIIQHIYRDGVIARDGRLLPGDIILKVNGMDISNVPHNYAVRLLRQPCQVLRLTVLREQKFRSRSNAHVPDSYGPRDDSFHVILNKSSPEEQLGIKLVRRVDEPGVFIFNVLNGGVADRHGQLEENDRVLAINGHDLRFGSPESAAHLIQASERRVHLVVSRQVRQSSPDIFQEAGWISNGQQSPGPGERNTASKPAATCHEKVVSVWKDPSESLGMTVGGGASHREWDLPIYVISVEPGGVISRDGRIKTGDILLNVNGIELTEVSRTEAVAILKSAPSSVVLKALEVKEQEAQEDCSPAALDSNHNVTPPGDWSPSWVMWLELPQYLCNCKDVILRRNTAGSLGFCIVGGYEEYSGNKPFFIKSIVEGTPAYNDGRIRCGDILLAVNGRSTSGMIHACLARMLKELKGRITLTIASWPGTFL
As for B2, the binding entry in test [2] is “no binding”.
